# Test results from US20090215851A1, “Method of Preparing a Porphyrin Derivative, a Porphyrin Derivative, Use of Said Porphyrin derivative and a pharmaceutical composition containing said porphyrin derivative” (PHOTOBIOCHEM N.V., priority 2005, published 2009).
# What was measured:
# [1] = Photosensitizer activity: oxygen consumption with histidine as substrate (Clark electrode); assay type: physicochemical; details: histidine 2 mM in PBS pH 7.4; halogen lamp illumination
# [2] = Photochemical singlet oxygen generation (emission at 1270 nm after laser excitation in toluene); assay type: physicochemical; details: air saturated toluene; excitation 532 nm; tetraphenylporphyrin as standard
# Protocol: Compound B dissolved in toluene was excited with a 9 mJ, 15 ns laser pulse at 532 nm from a home-built Q-switched frequency doubled Nd:YAG laser operating at 10 Hz. Emission from singlet oxygen at 1270 nm was detected at 90° to the quartz cuvette by an InGaAs photodiode, amplified and then signal-averaged (256 shots) on a digital oscilloscope (HP infinium). A 1260 nm interference filter (FWHM=75 nm) was used to protect the detector from laser light and sensitizer fluorescence. Typical decay times were 28±1 μs, which is characteristic for singlet oxygen decay in toluene (M. Okamoto et al, J. Phys. Chem., 1993, 97, pp. 177-180.) Tetraphenylporphyrin was used as a standard to determine the relative singlet oxygen yield (ΦΔ) (F. Wilkinson, et al, J. Phys. Chem. Ref. Data., 1993, 22, pp. 113-2162.). The relative quantum yield for compound 5 in air saturated toluene was 0.72. […] This stability of the compound according to the invention as exemplified by compound 5 towards singlet oxygen is surprising. In many porphyrins with appending double bonds the double bond reacts chemically with the singlet oxygen generated by the system. […]
Substance,decrease in dissolved oxygen (oxygen consumption rate) [1],relative singlet oxygen quantum yield (ΦΔ) [2]
"2′-cyano-8′-formyl-N′-methyl-1′,1a′,5a′,6′-tetrahydroacrido[4,5,5a,6-bcd]-annulated octaethyl porphyrin [compound 11]",50 % per minute,–
"2′-cyano-8′-formyl-N-methyl-1,1a,5a,6-tetrahydroacrido-[4,5,5a,6-bcd]-annulated 2,3-dihydromesoporphyrin dimethylester nickel complex [compound 4]",–,< 0.01
"2′-aminocarbonyl-8′-formyl-N′-methyl-1′,1a′,5a′,6′-tetrahydroacrido[4,5,5a,6-bcd]-annulated 2,3-dihydromesoporphyrin dimethylester [compound 6]",34 % per minute,–
"2′-cyano-8′-formyl-N′-methyl-1′,1a′,5a′,6′-tetrahydroacrido[4,5,5a,6-bcd]-annulated 2,3-dihydromesoporphyrin dicarboxylic acid [compound 7]",20 % per minute,–
"2′-cyano-8′-formyl-N-methyl-1,1a,5a,6-tetrahydroacrido-[4,5,5a,6-bcd]-annulated 2,3-dihydromesoporphyrin dimethylester [compound 5]",–,0.72
